Experimental data taken from patent publication US20240240145A1, “METHODS AND COMPOSITIONS FOR GENERATING MITOCHONDRIA REPLACED LYMPHOID CELLS” (Imel Biotherapeutics, Inc., priority 2021, published 2024).
At least one compound was matched to its structure with a doubt left.

Legend:
mouse NZB T cells = experiment: TaqMan SNP assay of replacement of NZB T cell mtDNA with B6 MEF mtDNA after culture with rapamycin; assay type: cell-based; details: rapamycin 100-1000 nM, days 2 and 7
Experimental: Isolation and Cell Culture of Primary Mouse T lymphocytes: All the animal experiments were performed according to the animal experiment guidelines issued by the Animal Care and Use Committee of our institution (M2019-536). For mouse T lymphocytes isolation, spleens were removed from mouse after anesthetized and sacrificed. Spleens were washed with PBS (FUJIFILM Wako Pure Chemical Corp.), then mashed and filtrated to extract splenocytes. Mouse T cells were highly purified from splenocytes by immunomagnetic negative selection using EasySep mouse T cell isolation kit (Veritas, Santa Clara, CA, USA) according to the manufacturer's recommendations. Isolated mouse T cells were cultured in Advanced RPMI1640 medium supplemented with 10% FBS, 1% penicillin/streptomycin, 20 mM L-glutamine (Thermo Fisher Scientific incorporated), […] recombinant human IL-2 (PeproTech, Rocky Hill, NJ, USA), which is activated with Dynabeads mouse T-activator CD3/CD28 (Thermo Fisher Scientific incorporated). Cells were incubated at 37 °C in a humidified 5% CO2 incubator.
Mitochondrial Isolation and Transfer to Mouse T cells: Mitochondria were isolated from B6 murine embryonic fibroblasts (MEF). […] The amounts of isolated mitochondria were expressed as protein concentration using a Bio-Rad protein assay kit (Bio-Rad Laboratories, incorporated, Richmond, CA, USA). […]

human GJ T cells = experiment: TaqMan SNP assay of transfer of EPC100 mitochondria to human GJ T cells cultured with rapamycin; assay type: cell-based
Experimental: Isolation and Cell Culture of Human T cells: Venous heparinized blood was taken according to the standard procedures from the median cubital vein. Human peripheral blood mononuclear cells (PBMC) were isolated from human peripheral blood using density-gradient centrifugation with 1.077 g/ml percoll (GE Healthcare Life Sciences, Buckinghamshire, England). Cells were cultured in TexMACS medium (Miltenyi Biotec) supplemented with 10% fetal bovine serum, 1% penicillin/streptomycin (Thermo Fisher Scientific incorporated), […] of IL-7, and […] of IL-15 on cell culture plates coated with anti-CD3 antibody and anti-CD28 antibody (Miltenyi Biotec). […]
TaqMan Single Nucleotide Polymorphism (SNP) Assay: Based upon the differences in the mitochondrial HVR1 sequences of human GJ T cells and EPC100 cells, and the mitochondrial ND1 of B6 mouse and NZB mouse, the probes and primer set forth in Tables 1 and 2 were designed, which provide sensitivity and specificity in the TaqMan SNP assay. […] The extracted DNA (1 ng) was used for quantitative PCR with the TaqMan Universal PCR Master Mix kit (Thermo Fisher Scientific Incorporated) on a CFX connect real-time system (Bio-Rad Laboratories, Incorporated) under the following conditions: 40 cycles of PCR (95° ° C. for 15 see and 60° ° C. for 1 min) after initial denaturation (95° ° C. for 10 min). […]

CO[C@H]1C[C@@H]2CC[C@@H](C)[C@@](O)(O2)C(=O)C(=O)N2CCCC[C@H]2C(=O)O[C@H]([C@H](C)C[C@@H]2CC[C@@H](O)[C@H](OC)C2)CC(=O)[C@H](C)/C=C(\C)[C@@H](O)[C@@H](OC)C(=O)[C@H](C)C[C@H](C)/C=C/C=C/C=C/1C [rapamycin]
dependence of replacement of NZB T cell mtDNA with B6 MEF mtDNA on rapamycin concentration (mouse NZB T cells): increased in a concentration dependent manner
detection of mtDNA from EPC100 cells in human GJ T cells (human GJ T cells; 50 to 500 nM of rapamycin, 2 days and 7 days, FIG. 3B): detected
dependence of amount of donor mtDNA on amount of rapamycin (human GJ T cells; 50 to 500 nM rapamycin): increasing with increasing amount of rapamycin
